These are yes or no findings as the source states them, for the method shown. Binding seen in cells or lysates may run through a third protein. Binding can be weak; no strength is given. Sequences can lack the tags named with a protein.
T1: Flag-Firefly luciferase-Yki2 (Yorkie isoform with two WW domains, includes exon 3) (Drosophila) (UniProt Q45VV3)
T1 sequence: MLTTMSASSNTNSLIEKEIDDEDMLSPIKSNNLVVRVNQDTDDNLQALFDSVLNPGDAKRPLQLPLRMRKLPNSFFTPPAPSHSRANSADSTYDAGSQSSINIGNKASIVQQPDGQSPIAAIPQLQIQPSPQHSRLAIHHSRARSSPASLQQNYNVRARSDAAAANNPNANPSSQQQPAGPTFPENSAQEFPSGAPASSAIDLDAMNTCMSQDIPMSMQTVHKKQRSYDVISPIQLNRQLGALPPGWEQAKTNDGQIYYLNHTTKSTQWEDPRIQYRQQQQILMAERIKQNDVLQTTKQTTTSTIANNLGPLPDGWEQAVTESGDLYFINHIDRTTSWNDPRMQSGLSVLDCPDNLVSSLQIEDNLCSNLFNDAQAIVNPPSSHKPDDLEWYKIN

B1: Hippo fused to Renilla luciferase (protein, UniProt Q8T0S6 1-669)
chain: MSEPEVTSVVDMKSPNISSSCSFFKLKKLSEESLLQPPEKVFDIMYKLGEGSYGSVYKAVHKESSSIVAIKLVPVESDLHEIIKEISIMQQCDSPYVVRYYGSYFKQYDLWICMEYCGAGSVSDIMRLRKKTLTEDEIATILSDTLQGLVYLHLRRKIHRDIKAANILLNTEGYAKLADFGVAGQLTDTMAKRNTVIGTPFWMAPEVIEEIGYDCVADIWSLGITALEMAEGKPPYGEIHPMRAIFMIPQKPPPSFREPDRWSTEFIDFVSKCLVKEPDDRATATELLEHEFIRNAKHRSILKPMLEETCAIREQQRANRSFGGVLAASQAKSLATQENGMQQHITDNAFMEDPGTLVPEKFGEYQQSSASDATMIAHAEQGVDEGTLGPGGLRNLSKAAAPAAASSAASPLDMPAVDSGTMVELESNLGTMVINSDSDDSTTAKNNDDQKPRNRYRPQFLEHFDRKNAGDGRGDEKPIATEYSPAAAEQQQQQQQQQQQQQQDEQHLASGANDLNNWEHNMEMQFQQISAINQYGLQQHQQQQQVLMAYPLMNEQLIALNNQPNLLLSNAAPMGQQGIPAAAPAQPPPAYQNQHMHTQSHAYVEGEFEFLKFLTFDDLNQRLCNIDHEMELEIEQLNKKYNAKRQPIVDAMNAKRKRQQNINNNLIKI
B2: Warts fused to Renilla luciferase (protein, UniProt Q9VA38 1-1105)
chain: MHPAGEKRGGRPNDKYTAEALESIKQDLTRFEVQNNHRNNQNYTPLRYTATNGRNDALTPDYHHAKQPMEPPPSASPAPDVVIPPPPAIVGQPGAGSISVSGVGVGVVGVANGRVPKMMTALMPNKLIRKPSIERDTASSHYLRCSPALDSGAGSSRSDSPHSHHTHQPSSRTVGNPGGNGGFSPSPSGFSEVAPPAPPPRNPTACSAATPPPPVPPTSQAYVKRRSPALNNRPPAIAPPTQRGNSPVITQNGLKNPQQQLTQQLKSLNLYPGGGSGAVVEPPPPYLIQGGAGGAAPPPPPPSYTASMQSRQSPTQSQQSDYRKSPSSGIYSATSAGSPSPITVSLPPAPLAKPQPRVYQARSQQPIIMQSVKSTQVQKPVLQTAVAPQSPSSASASNSPVHVLAAPPSYPQKSAAVVQQQQQAAAAAHQQQHQHQQSKPPTPTTPPLVGLNSKPNCLEPPSYAKSMQAKAATVVQQQQQQQQQQQQVQQQQVQQQQQQQQQQLQALRVLQAQAQRERDQRERDQRERERDQQKLANGNPGRQMLPPPPYQSNNNNNSEIKPPSCNNNNIQISNSNLATTPPIPPAKYNNNSSNTGANSSGGSNGSTGTTASSSTSCKKIKHASPIPERKKISKEKEEERKEFRIRQYSPQAFKFFMEQHIENVIKSYRQRTYRKNQLEKEMHKVGLPDQTQIEMRKMLNQKESNYIRLKRAKMDKSMFVKLKPIGVGAFGEVTLVSKIDTSNHLYAMKTLRKADVLKRNQVAHVKAERDILAEADNNWVVKLYYSFQDKDNLYFVMDYIPGGDLMSLLIKLGIFEEELARFYIAEVTCAVDSVHKMGFIHRDIKPDNILIDRDGHIKLTDFGLCTGFRWTHNSKYYQENGNHSRQDSMEPWEEYSENGPKPTVLERRRMRDHQRVLAHSLVGTPNYIAPEVLERSGYTQLCDYWSVGVILYEMLVGQPPFLANSPLETQQKVINWEKTLHIPPQAELSREATDLIRRLCASADKRLGKSVDEVKSHDFFKGIDFADMRKQKAPYIPEIKHPTDTSNFDPVDPEKLRSNDSTMSSGDDVDQNDRTFHGFFEFTFRRFFDDKQPPDMTDDQAPVYV
B3: Ex fused to Renilla luciferase (protein, UniProt Q07436 1-1427)
chain: MRAFCTVSAPLEVCASSAEQLSPGSRFLALRLLGQQQPKTLYFLVDAKSRVREVYTQTCLHFATQGMLDTELFGLAVLIDGEYMFADPESKLSKYGPKSWRSSHTHGLDANGRPLLELHFRVQFYIESPFMLKDETSRHNYYLQLRHNILQRDLPREQAEQALVFLAGLALQADLGDAPPGTSNSKDDSGEETSASPSNGGRGLSATTTLPKISKRANERMLRLSTYVASTSKRETIPLPPSLPPNGADYYRIEDYLPSGLHTPWARSAMRACHREHLGMATAEAELLYIQQACSLHETINAHTYRMRLAKSEQGSGSAWFVVYAKGIKILGGESTNSSSNPETTTFLWPNITKLSFERKKFEIRSGESRITLYAASDEKNKLLLTLCKDTHQWSMKLAARLKEVSKREEEEAAESQRLHASYACSRSLLLPYKSKNEQRISVISSTSSNTTSGIVSDRVHSEDELEIMINTPPAPLAAPSTESLALAHLLDRPSVSRQTSSVGQMSLKDLEEQLAALSVRPQDASSNGATIVTNSSVQRNSMGTTANDSSTATDSPSSQHNIGSQCSSTCSTVVVTSPVNGAGASSSGAPIPVHSTSSSLELGFSHTAQNSALSETSPDDFLSTSAREETESVSGASGVYTLAHGAPPTETSGVYTMHSSELTGQSSEIAESEKSSHYGMFQPQKLEETHVQHSDSVDGKKKEDFRPRSDSNVSTGSSFRGDGSDPTDNKHSLLSAEELTNLIVGRGTYPSRKTVSSSLHSDCDYVTLPLGDQGEEEVDQPPAPPPPYSARHEKTGLCGPPIAKPIPKPIAVVAPKPDSPPCSPPVPPAPIPAPPPAIRRRDPPPYSISSKPRPTSLISVSSSAHPAPSAAGSMSSLKSEEVTARFITTRPQISILKAHTSLIPDGAKPSYAAPHHCSSVASSNGSVCSHQLSQQSLHNSNYAGGSQASLHHHHVPSHHRHSGSAAIGIVPYGLHKSTASLHHQQSCVLLPVIKPRQFLAPPPPSLPRQPPPPPPPNHPHLASHLYEREMARKQLELYQQQLYSDVDYVIYPIQDPAVSQQEYLDAKQGSLLAAMAQAAPPPPHHPYLAMQVSPAIYRSTPYLPLTLSTHSRYASTQNLSDTYVQLPGPGYSPLYSPSMASLCSSYEPPPPPPLHPAALAAAAAAGAGSSSSSMFARSRSDDNILNSLDLLPKGKRLPPPPPPPYVNRRLKKPPMPAPSEKPPPIPSKPIPSRMSPIPPRKPPTLNPHHANSPLTKTSSGAQWAGERPRPDLGLGLGLNRGNNSILAQLQASMVAQSHAQAQAQALDIALLREKSKHLDLPLISALCNDRSLLKQTKVVINPKTGQEMPTSSAQPSGATTNGVANSSAGAGTLSKARKGSTVSHRHPQDKLPPLPVQQLAEANNYVIDPAVMMKQQQQQQQHNKTS
B4: Hth fused to Renilla luciferase (protein, UniProt O46339 1-487)
chain: MAQPRYDDGLHGYGMDSGAAAAAMYDPHAGHRPPGLQGLPSHHSPHMTHAAAAAATVGMHGYHSGAGGHGTPSHVSPVGNHLMGAIPEVHKRDKDAIYEHPLFPLLALIFEKCELATCTPREPGVQGGDVCSSESFNEDIAMFSKQIRSQKPYYTADPEVDSLMVQAIQVLRFHLLELEKVHELCDNFCHRYISCLKGKMPIDLVIDERDTTKPPELGSANGEGRSNADSTSHTDGASTPDVRPPSSSLSYGGAMNDDARSPGAGSTPGPLSQQPPALDTSDPDGKFLSSLNPSELTYDGRWCRREWSSPADARNADASRRLYSSVFLGSPDNFGTSASGDASNASIGSGEGTGEEDDDASGKKNQKKRGIFPKVATNILRAWLFQHLTHPYPSEDQKKQLAQDTGLTILQVNNWFINARRRIVQPMIDQSNRAVYTPHPGPSGYGHDAMGYMMDSQAHMMHRPPGDPGFHQGYPHYPPAEYYGQHL
B5: GAF fused to Renilla luciferase (protein, UniProt Q08605 1-582)
chain: MSLPMNSLYSLTWGDYGTSLVSAIQLLRCHGDLVDCTLAAGGRSFPAHKIVLCAASPFLLDLLKNTPCKHPVVMLAGVNANDLEALLEFVYRGEVSVDHAQLPSLLQAAQCLNIQGLAPQTVTKDDYTTHSIQLQHMIPQHHDQDQLIATIATAPQQTVHAQVVEDIHHQGQILQATTQTNAAGQQQTIVTTDAAKHDQAVIQAFLPARKRKPRVKKMSPTAPKISKVEGMDTIMGTPTSSHGSGSVQQVLGENGAEGQLLSSTPIIKSEGQKVETIVTMDPNNMIPVTSANAATGEITPAQGATGSSGGNTSGVLSTPKAKRAKHPPGTEKPRSRSQSEQPATCPICYAVIRQSRNLRRHLELRHFAKPGVKKEKKTTSGKKSSSGSSGSGSGALSSSGSVPQVQTVQSLHTLQGVQVKKDPDAQQQQQQQQQQQQQQQQQAMTVSGATGGQVQQQVQQVQQQVQQQQQQQQQQQQQLQHHQIIDSSGNITTATTSAQAAAAAQQQAAGQQQQLVAQSDGSESGAPLSIAQVQTLQGHQIIGNLNQVNITDFQQQQPQQQQQQQQQQQQQQQQQQQTQQTL

Target: Flag-Firefly luciferase-Yki1 (Yorkie isoform with a single WW domain, skips exon 3) (Drosophila)
Assay: co-IP

binding, binds:
B1, B2, B3, B4, B5

Target: T1, Flag-Firefly luciferase-Yki2 (Yorkie isoform with two WW domains, includes exon 3) (Drosophila)
Assay: co-IP

binding, binds:
Cabut fused to Renilla luciferase (Drosophila), Tondu-domain-containing Growth Inhibitor fused to Renilla luciferase (Drosophila), 14.3.3 protein fused to Renilla luciferase (Drosophila), Renilla luciferase fused to WW domain binding protein 2 (Drosophila), Renilla luciferase fused to Mor (Drosophila), NcoA6 fused to Renilla luciferase (Drosophila)

From doi:10.1101/2019.12.19.882779
